# Test results: PubChem BioAssay AID540335 (Broad Institute, 2011)
# About 270 (21%) of roughly 1,300 compounds were called active.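 The calls were made as follows: active = dose-dependent rise or fall in viability, either side of zero, with half-maximal concentration at or below a set limit; inconclusive = flat curve at 30 to 70% viability loss, or poor fit; inactive = flat within 30% either way, or potency beyond limit.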 This is one part of the list. Measured potencies and affinities stand elsewhere.
# Test: proliferation inhibition in MITF-low A375 cells – cell-based, cherry-pick samples, set 2, counter-screen for MITF modulator project, dose response (AID 540335);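 also: A375 human melanoma cells which do not depend on MITF; 0% = median of neutral control wells and 100% = double that signal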
# Conditions: CellTiter-Glo ATP luminescence, 24 h; at 35 µM (top of the series)
row,Structure (SMILES),"activity change, negative = decreased viability"
1,Cc1ccccc1-c1nc(CN2CCC(C(=O)NCCCN3CCCC(C)C3)CC2)c(C)o1 (stereo not drawn),inactive: -2.83%
2,Cc1cc2oc(=O)cc(C)c2cc1NC(=O)CCC(=O)O,inactive: 8.56%
3,COc1ccc(-c2nc(-c3ccncc3)no2)cc1OC,inactive: -1.96%
4,c1ccc(-n2ncc3c(NCc4cccs4)ncnc32)cc1,inactive: 12.3%
5,C=CC[n+]1c(-c2ccc(C)cc2)csc1Nc1ccc(NC(C)=O)cc1,inactive: -2.79%
6,Cc1ccc(-c2cn3cc(C)ccc3n2)cc1,inactive: -19.5%
7,COC(=O)C1=C(CN2CCCc3ccccc32)NC(=O)NC1c1ccc(F)cc1 (stereo not drawn),inactive: 0.771%
8,O=C1c2ccccc2C(=O)N1CCSc1ccccc1,inactive: -0.093%
9,COc1ccc(-c2cc(-c3ccccc3O)[nH]n2)cc1OC,inactive: 7.71%
10,CN(CC(=O)N1CCCCCC1)S(=O)(=O)c1ccccc1,inactive: 3.34%
11,CCN1CCN(C2=C(NS(=O)(=O)c3ccc(Br)cc3)C(=O)c3ccccc3C2=O)CC1,inactive: -15.8%
12,COc1cc(C(=O)N/N=C(\c2ccccc2)c2ccccn2)cc(OC)c1OC,inactive: -25.7%
13,CC(=O)Nc1cccc2c1Cc1ccccc1-2,inactive: 7.8%
14,COc1cc2ccccc2cc1C(=O)Nc1ccc(N2CCN(C)CC2)cc1,inactive: -1.65%
15,O=C(Nc1ccc(N2CCN(C(=O)c3ccc(Cl)cc3)CC2)cc1)c1ccc([N+](=O)[O-])o1,inactive: 20.7%
16,Cc1cc(/C(N)=N/OC(=O)c2ccc(Cl)cc2)no1,inactive: 7.61%
17,Cc1cc(N2CCOCC2)n2ncc(-c3ccccc3Cl)c2n1,inactive: 10.9%
18,O=C(CSc1ccc(Cl)cc1)NC1CCCC1,inactive: 8.2%
19,O=c1c2ccccc2cnn1CCOc1ccccc1,inactive: -29.7%
20,c1ccc(-c2cn3nc4c(nc3n2)CCCC4)cc1,inactive: -31.4%
21,Cc1cc2oc3ccc(NCCC4CCCN4C)cc3c(=O)c2cc1C (stereo not drawn),inactive: -96.9%
22,CC(C)(C)C1CCC(OC(=O)CN2CCCCC2)CC1 (stereo not drawn),inactive: 8.7%
23,COc1cc2c(c(OC)c1OC)-c1ccc(N(C)CC(OC)OC)c(=O)cc1[C@@H](NC(C)=O)CC2,inactive: 5.25%
24,CCOC(=O)c1ccc2nc(C)c(CCC(C)=O)c(Cl)c2c1,inactive: 13.2%
25,CCCCOC(=O)Nc1ccc2c(C)cc(=O)oc2c1,inactive: 7.51%

row,Structure (SMILES),"activity change, negative = decreased viability"
1,COc1ccc(S(=O)(=O)N2CCCCC2)cc1NC(=O)c1ccc([N+](=O)[O-])o1,inactive: -19.1%
2,Cc1nc(SCC(=O)Nc2ccc(CN3CCCC3)cc2)c2c(C)c(C)sc2n1,inactive: -4.46%
3,CN(CCC#N)C(=O)COC(=O)c1ccccc1C(=O)c1ccc(Cl)c([N+](=O)[O-])c1,inactive: 54.4%
4,Cc1cc(-n2c(C)cc(C(=O)CCl)c2C)no1,inactive: -29.3%
5,CCCCNc1nc(=S)n(-c2ccccc2)c(C)c1C(C)=O,inactive: 8.62%
6,Cc1cccnc1NC(=O)NC(=O)c1ccc(C(C)(C)C)s1,inactive: 3.2%
7,Cc1ccccc1-n1ncc2c([N+](=O)[O-])cc([N+](=O)[O-])cc21,inactive: -0.302%
8,N#CC1=C(c2ccccc2)/C(=C/c2ccccc2)OC1=O,inactive: -19.5%
9,C/C(=N\Nc1nccnc1Cl)c1ccc(O)c(C)c1,inactive: 6.7%
10,Oc1ccc(CNc2ccccc2F)c2cccnc12,inactive: -3.58%
11,CCN(C(=O)c1ccco1)c1nc(-c2ccc(OC)cc2)cs1,inactive: -7.94%
12,O=C(N/N=C\c1cc(Br)ccc1O)c1ccc(S(=O)(=O)N2CCCCC2)cc1,inactive: -15.3%
13,COc1ccc(C(=O)NC(=O)Nc2cc(C)ccn2)cc1,inactive: -17.4%
14,N#C/C(=C\C=C\c1ccccc1[N+](=O)[O-])C(=O)NCc1ccccc1,inactive: 0.185%
15,O=C1c2cc(F)ccc2-n2c1nc1ccccc1c2=O,inactive: -37.3%
16,CN(C)C1CCN(Cc2cc(COCc3ccccc3)c3cccnc3c2O)C1 (stereo not drawn),inactive: -37.2%
17,CC1CC(C)CN(C(=O)/C=C/c2ccc([N+](=O)[O-])s2)C1 (stereo not drawn),inactive: -6.24%
18,O=C1/C(=C/c2ccccc2[N+](=O)[O-])COc2ccccc21,inactive: 116%
19,Cc1nn2c(N)c(-c3ccccc3)cnc2c1-c1ccccc1,inactive: 3.49%
20,O=C(O)c1ccc(Nc2nc3c(s2)CCCC3)cc1,inactive: 3.63%
21,COc1ccc(NC(=O)c2cc3ccccc3oc2=O)c(OC)c1,inactive: 4.04%
22,CN(C)c1ccc(C2=NOC(CN3C(=O)c4ccccc4S3(=O)=O)C2)cc1 (stereo not drawn),inactive: 1.39%
23,OCC1OC(n2cnc3c(NCc4ccco4)ncnc32)C(O)C1O (stereo not drawn),inactive: -25.3%
24,COc1ccc(/C=N/Nc2ccccn2)cc1OC,inactive: 1.22%
25,COc1ccccc1OCC(=O)N/N=C/C=C/c1ccc([N+](=O)[O-])o1,inactive: -17.1%

row,Structure (SMILES),"activity change, negative = decreased viability"
1,COc1ccc(/C=C2\Sc3ccc(C(=O)NCCN4CCCCCC4)cc3N(C)C2=O)cc1,inactive: -19.8%
2,O=C(c1ccc([N+](=O)[O-])s1)N1CCN(c2ccccn2)CC1,inactive: 2.25%
3,CCOC(=O)c1c(C)oc2c(F)c(F)c(F)c(F)c2c1=O,inactive: -17.5%
4,O=C(N/N=C/c1cc(Cl)ccc1O)c1ccncc1,inactive: -31%
5,Cc1ccc(C(CNS(=O)(=O)c2ccc(Br)cc2)N2CCN(C)CC2)cc1 (stereo not drawn),inactive: -15.8%
6,COc1ccccc1/C=C/C=N/NC(=O)c1cccs1,inactive: 5.11%
7,COc1cccc(/C=N/Nc2ncnc3c2ncn3Cc2ccccc2)c1O,inactive: -33.2%
8,CNc1oc(/C=C/c2cccc(OC)c2)nc1C#N,inactive: 13.1%
9,CC(C)C(=O)Nc1ccc2nn(-c3ccc(F)cc3)nc2c1,inactive: 9.97%
10,Cc1ccc(-c2cn3nc(C)c(C)nc3n2)cc1,inactive: -18.3%
11,COC(=O)c1ccc(/C=N/Nc2nc(C)c(C)s2)cc1,inactive: -2.98%
12,CS(=O)(=O)c1ccc2nc(NC(=O)c3ccccc3)sc2c1,inactive: -10.8%
13,COc1cccc(-c2ccc3c(N)c(C(=O)NC4CC4)sc3n2)c1,inactive: 13.8%
14,Cc1cnc(NC(=O)c2nn(C)cc2[N+](=O)[O-])s1,inactive: 0.417%
15,NC(=O)c1c(NC(=O)c2cccnc2)sc2c1CCCCC2,inactive: 8.24%
16,OCC1CCCC(n2cnc3c(=S)nc[nH]c32)O1 (stereo not drawn),inactive: 9.92%
17,Cc1ccccc1NCc1nc2ccccc2n1C,inactive: -17.8%
18,Cn1nnnc1Sc1ncnc2scc(-c3cccc(F)c3)c12,inactive: 12.1%
19,COCc1cc(C)nc2sc(C(=O)Nc3cccc(OC)c3)c(N)c12,inactive: 9.9%
20,Cc1ccc2oc(Nc3nc(C)c(C)c(C)n3)nc2c1,inactive: 3.65%
21,Cc1ccc(-c2nc(-c3ccncc3)no2)cc1C,inactive: 8.87%
22,O=C(CCC1CCCN(C(=O)c2cc3ccccc3o2)C1)NCc1ccc(F)c(F)c1 (stereo not drawn),inactive: 16.4%
23,CN(c1ccc(O)cc1)c1nc(O)c(C2=c3ccccc3=NC2=O)s1,inactive: 8.99%
24,O=C(N/N=C/c1cccc(Oc2ccc([N+](=O)[O-])cc2[N+](=O)[O-])c1)c1cncc(Br)c1,inactive: -6.16%
25,NCCN1C(=O)S/C(=C\c2ccc3c(c2)OCO3)C1=O,inactive: 8.91%

row,Structure (SMILES),"activity change, negative = decreased viability"
1,Cc1ccc(-c2noc(CN3CCCCC3)n2)cc1,inactive: -4.18%
2,COc1cc(/C=N/NS(=O)(=O)c2ccc(C)cc2)ccc1OCc1cccc(C(=O)O)c1,inactive: -6.1%
3,Nc1nnc(/C=C/c2ccccc2Cl)s1,inactive: 5.9%
4,CCOc1ccc(C(=O)N2CCc3ccccc32)cc1,inactive: 7.33%
5,COc1ccc2nc(N3CCN(C(=O)c4ccc([N+](=O)[O-])o4)CC3)sc2c1,inactive: 5.07%
6,O=C(Nc1ccccc1N1CCOCC1)c1ccc([N+](=O)[O-])o1,inactive: -5.46%
7,CC(C)c1nnc(NC(=O)CCC2CCCCC2)s1,inactive: 6.1%
8,CCN(CC)C(=O)CCCOc1ccc(Cl)cc1Cl,inactive: 2.77%
9,COc1ccc(C(=O)Nc2ccc(C)cn2)c(OC)c1,inactive: -36.8%
10,Cn1nnnc1Sc1ncnc2scc(-c3cccs3)c12,inactive: 6.26%
11,Cc1oc(-c2ccc(Cl)cc2)nc1CN1CCC(C(=O)NCCCN2CCCC(C)C2)CC1 (stereo not drawn),inactive: -19.6%
12,Cc1c(/C=C/C(=O)c2ccc(Cl)s2)cnn1C,inactive: 0.007%
13,C/C(=N/N=C(/C)c1cccs1)c1cccs1,inactive: 0.599%
14,C[C@H]1CCC[C@]2(C)C[C@H]3OC(=O)C(CN4CCCCCC4)[C@H]3C=C12 (stereo partly drawn),inactive: -9.08%
15,COc1cc(/C=N/NS(=O)(=O)c2ccc3ccccc3c2)ccc1OCc1ccc(C(=O)O)cc1,inactive: 1.79%
16,Cc1c(C#N)c(O)n(CCO)c(=O)c1N=Nc1ccc2c(c1)COC2=O,inactive: -7.95%
17,Cc1cc(Cl)ccc1NC(=O)c1ccc2c(c1)OCO2,inactive: 7.61%
18,CC1CCC(C(C)C)C(OC(=O)C[n+]2cc(-c3ccc(Cl)cc3)n3c2CCCCC3)C1 (stereo not drawn),inactive: -67.3%
19,O=[N+]([O-])c1cccc(/C=N/Nc2ncc(Br)cn2)c1,inactive: 10.8%
20,COc1ccc(COC(=O)c2cc([N+](=O)[O-])ccc2N2CCOCC2)cc1F,inactive: -1.95%
21,CN(C)CCCNc1nc2sc3c(c2c(=O)n1CCc1ccccc1)CCCCC3,inactive: -16.3%
22,O=C(Nc1nc2ccccc2s1)Nc1ccc(F)cc1F,inactive: -7.29%
23,O=C(COC(=O)c1ccccc1C(=O)c1ccc(Cl)c([N+](=O)[O-])c1)NC1CC1,inactive: 16.1%
